# The campaign covered roughly 350,000 compounds. About 1,200 (0.34%) were called active. Inconclusive results, whose numbers are uncertain, are shown with a selection of clear calls. The call rests on the fitted dose curve; in most records, active means well fitted inhibition curve with a large enough effect; inconclusive means small, poorly fitted or top-dose-only effect; inactive means no such curve, though single readings can be large or run the other way. A potency beside an inconclusive call is a rough fit, not a confirmed value.
# The chains behind the UniProt entries cited, without tags or fusion partners.
# UniProt P27695, whole entry, looked up: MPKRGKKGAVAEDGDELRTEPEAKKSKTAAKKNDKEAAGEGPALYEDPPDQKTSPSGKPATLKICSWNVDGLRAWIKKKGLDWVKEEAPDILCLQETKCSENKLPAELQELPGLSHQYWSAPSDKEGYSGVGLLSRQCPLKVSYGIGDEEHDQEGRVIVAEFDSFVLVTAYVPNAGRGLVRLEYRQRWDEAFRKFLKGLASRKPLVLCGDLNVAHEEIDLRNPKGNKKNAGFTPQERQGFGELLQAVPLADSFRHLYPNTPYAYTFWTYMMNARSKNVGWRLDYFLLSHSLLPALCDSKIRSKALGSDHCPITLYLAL
# Molecular target: DNA repair nuclease/redox regulator APEX1 (Homo sapiens) (UniProt P27695)
# Test: qHTS Assay for Inhibitors of the Human Apurinic/apyrimidinic Endonuclease 1 (APE1); further: nearly all actives have a fitted effect of over 55% in size
# Conditions: recombinant APE1, TAMRA/BHQ-2 abasic DNA cleavage fluorescence; series mostly up to 65.8 µM
# Outline: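 APE1 at 0.75 nM preincubated 15 min at room temperature with compound. Reaction then started with 50 nM double-stranded THF-abasic substrate labelled with TAMRA/BHQ-2, and 525/598 nm fluorescence read kinetically. Activity taken as third-minus-first read difference, normalized to DMSO and NSC13755 controls.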
# Potency means the concentration at half of the fitted maximal effect.
row,Compound,Potency
1,CS(=O)(=O)Nc1ccc(C(=O)Nc2cccc([N+](=O)[O-])c2)cc1,"inconclusive: 28.2 µM [inhibitor, single point]"
2,CSCCC1NC(=O)N(CC(=O)N2N=C(c3ccc(Cl)cc3)CC2c2ccco2)C1=O (stereo unspecified),"inconclusive: 0.0562 µM [inhibitor, full curve]"
3,COc1ccc(/C(O)=C2/C(=O)C(=O)N(Cc3ccco3)C2c2cccs2)cc1 (stereo unspecified),"inconclusive: 50.1 µM [inhibitor, single point]"
4,Cc1ccc(C(=O)O)cc1-c1ccc(/C=C2\SC(=O)N(CC(=O)Nc3ccccc3)C2=O)o1,"inconclusive: 39.8 µM [inhibitor, single point]"
5,COc1ccc(/C(=N\O)c2nccc3cc(OC)c(OC)cc23)cc1OC,"inconclusive: 39.8 µM [inhibitor, single point]"
6,c1ccc(C2c3[nH]c4ccccc4c3CCN2Cc2cccn2-c2ccccn2)nc1 (stereo unspecified),inactive
7,O=C1NN(c2ccc(Cl)c(Cl)c2)C(=O)/C1=C/c1ccc(-c2ccccc2C(=O)O)o1,inactive
8,COc1ccc(-c2ccnc3nc(N4CCOCC4)nn23)cc1,"inconclusive: 0.0112 µM [inhibitor, full curve, poor fit]"
9,Cc1cc(C)n2nc3nc(N4CCCCC4)nc(-c4ccco4)c3c2n1,inactive
10,O=C(O)CCC/C=C\C/C=C\C=C\[C@@H](O)C/C=C\CCCCCO,inactive
11,CCNc1nc(NCC)n2c(SCC(=O)Nc3cc(Cl)ccc3OC)nnc2n1,"inconclusive: 21.2 µM [inhibitor, partial curve]"
12,O=C(c1ccc(CS(=O)(=O)c2c(Cl)cccc2Cl)o1)N1CCCC1,inactive
13,Cc1ccc(C(=O)NN2C(=O)C3C(C2=O)C2C=CC3C23CC3)cc1 (stereo unspecified),"inconclusive: 0.631 µM [inhibitor, full curve, poor fit]"
14,N#CC1=C(N)OC2=C(CCC/C2=C/c2ccoc2)C1c1ccoc1 (stereo unspecified),active: 14.1 µM
15,O=C1NC(=S)S/C1=C\c1cc2ccccc2nc1N1CCCCC1,inactive
16,C/C(=N\NC(=O)c1ccccc1O)c1ccc(NC(=O)Cc2ccccc2)cc1,inactive
17,COC(=O)CCCC1=CC2=CC(=O)C(C)(OC(=O)c3cccs3)C(=O)C2=CN1Cc1ccco1 (stereo unspecified),"inconclusive: 17.8 µM [inhibitor, partial curve]"
18,Cc1ccc(C(=O)NC2CC(=O)N(c3ccc4c(c3)OCCO4)C2)cc1[N+](=O)[O-] (stereo unspecified),inactive
19,CSCCC(NC(=O)c1ccccc1)C(=O)OCC(=O)Nc1ccc(C)c(Cl)c1 (stereo unspecified),"inconclusive: 35.5 µM [inhibitor, single point]"
20,CCc1cccc(C)c1NC(=O)COC(=O)c1c2c(nc3ccccc13)/C(=C\c1cccs1)CCC2,"inconclusive: 22.4 µM [inhibitor, single point]"
21,COc1cc(C(=O)N/N=C/c2sc(N3CCOCC3)nc2-c2ccccc2)cc(OC)c1OC,"inconclusive: 31.6 µM [inhibitor, partial curve]"

row,Compound,Potency
1,Cc1ccc(O)c(C2=Nc3ccccc3N=C(c3ccco3)C2)c1,"inconclusive: 35.5 µM [inhibitor, single point]"
2,CCC1=NN2C(=N)/C(=C\c3cccn3-c3ccc(C)c(C)c3)C(=O)N=C2S1,inactive
3,COc1ccc(CC(NC(=O)c2ccccc2)C(=O)NCC(=O)O)cc1 (stereo unspecified),"inconclusive: 56.2 µM [inhibitor, partial curve, poor fit]"
4,CC(C)c1ccc(N=c2c([N+](=O)[O-])nn(-c3ccc4c(c3)OCCO4)n2O)cc1,"inconclusive: 20 µM [inhibitor, single point]"
5,COc1ccc(-c2cn[nH]c2-c2ccc(OCc3ccc(F)cc3)cc2O)cc1OC,"inconclusive: 25.1 µM [inhibitor, single point]"
6,Cc1[nH]c2ccccc2c1C(=O)CN1C(=O)C(=O)N(C2CCCC2)C1=O,"inconclusive: 31.6 µM [inhibitor, single point]"
7,CCOc1ccc(NC(=O)CC2CC(C)(C)OC2=O)cc1 (stereo unspecified),inactive
8,CNCc1c(C)nn(-c2ccccc2)c1C,"inconclusive: 22.4 µM [inhibitor, single point]"
9,O=S(=O)(/N=C(\[O-])C[n+]1ccccc1)c1ccc(Cl)cc1,"inconclusive: 39.8 µM [inhibitor, single point]"
10,CCCCCCOc1ccc(N2C(=O)CC(N(CCc3ccc(S(N)(=O)=O)cc3)C(C)=O)C2=O)cc1 (stereo unspecified),"inconclusive: 39.8 µM [inhibitor, single point]"
11,C=CCc1cccc2cc(C(=O)NCc3ccc(C(=O)OCC)o3)c(=O)oc12,"inconclusive: 28.2 µM [inhibitor, single point]"
12,CCOC(=O)OCC1C=C[C@H](c2cc(-c3ccccc3)ccc2O)C(c2ccc(C(C)=O)cc2)O1 (stereo partly specified),"inconclusive: 3.16 µM [inhibitor, single point]"
13,Cc1noc(/C=C/c2cccs2)c1S(=O)(=O)N1CCC(C(=O)NCCCN2CCC(C)CC2)CC1,"inconclusive: 28.2 µM [inhibitor, single point]"
14,O=C(CCCn1c(=O)[nH]c2cc(Cl)ccc2c1=O)NCCCN1CCCC1=O,"inconclusive: 12.6 µM [inhibitor, partial curve]"
15,Cc1ccc(-n2c(SCC(=O)NCCN3C(=O)CSC3=O)nnc2-c2cccc(C)c2)cc1,"inconclusive: 17.8 µM [inhibitor, single point]"
16,CCC(=O)NC(=S)NNC(=O)c1ccc(NC(=O)c2ccccc2)cc1,"inconclusive: 6.31 µM [inhibitor, single point]"
17,Cc1sc2ncn(CC(=O)NCC3COc4ccccc4O3)c(=O)c2c1S(=O)(=O)N1CCCCC1 (stereo unspecified),"inconclusive: 0.199 µM [inhibitor, full curve, poor fit]"
18,CCOc1ccccc1NC(=O)COC(=O)c1c[nH]c2ccccc12,"inconclusive: 23.8 µM [inhibitor, single point]"
19,O=C(CSc1ccc2nnc(-c3cccnc3)n2n1)Nc1ccc(F)cc1F,"inconclusive: 7.52 µM [inhibitor, single point]"
20,CCOC(=O)Cc1[nH]nc2c1C(C1C=CCCC1)C(C#N)=C(N)O2 (stereo unspecified),"inconclusive: 44.7 µM [inhibitor, single point]"

# Molecules shown so far containing a nitro group on carbon, in the order listed:
row,Compound,Potency
1,CS(=O)(=O)Nc1ccc(C(=O)Nc2cccc([N+](=O)[O-])c2)cc1,"inconclusive: 28.2 µM [inhibitor, single point]"
18,Cc1ccc(C(=O)NC2CC(=O)N(c3ccc4c(c3)OCCO4)C2)cc1[N+](=O)[O-] (stereo unspecified),inactive
4,CC(C)c1ccc(N=c2c([N+](=O)[O-])nn(-c3ccc4c(c3)OCCO4)n2O)cc1,"inconclusive: 20 µM [inhibitor, single point]"
